Variants at the background level are over-represented here.
B1: tRNA (parent)
chain: GUUCCGUUGGCGUAAUGGUAACGCGUCUCCCUCCUAAGGAGAAGACUGCGGGUUCGAGUCCCGUACGGAACG

Variants of: B1
Test: yeast fitness relative to wild type (ratio to wild type); higher = fitter; tRNA-Arg(CCU), competitive growth, 37 C, YPD
In short: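 Changes in genotype frequencies gave Darwinian fitness relative to wild type. Frequencies were read by 100-nucleotide paired-end sequencing of gene amplicons before and after pooled Saccharomyces cerevisiae strains, carrying tRNA-Arg(CCU) gene variants at the native locus, were competed in YPD at 37°C for 24 hours in six replicates. A genotype was kept only with ≥ 100 starting reads, and estimates < 0.5 were set to 0.5.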

Variant	yeast fitness
C4G G18A C30U A69U	≤ 0.5
C11G U13G C66U	≤ 0.5
C4U A45U C46U U53C	≤ 0.5
U3C G6A C30U A45G C46U	≤ 0.5
C22A G51C A69U	0.74
A15G A21G C29G C55A	≤ 0.5
U2A C34G G63A	≤ 0.5
C5A C33U G52A	≤ 0.5
C11U A42U A57U G58C	≤ 0.5
C11A C31A U47A	≤ 0.5
C30A U32A U47G A57G C61U	≤ 0.5
A45G A57U C60U	≤ 0.5
C5A C11G A40G G67C A69U	≤ 0.5
U8A C27A A37U C62G	≤ 0.5
U2C U16G G25A A40C C46U	≤ 0.5
C24U G48C G50A C61G	≤ 0.5
C22G C29G A42U C61G	≤ 0.5
U26G A37U G58A	≤ 0.5
G10A A21C A40G U47G C62G A69U	≤ 0.5
C49U A69U	1.01
U3C C31U C62U	0.804
A20G A37G G38A C55U U59G	0.563
C4A A21C C62G	≤ 0.5
C34A A42G C46U U54C	≤ 0.5

Variant	yeast fitness
U2G U59G A70C	≤ 0.5
U19A C27U A65U	0.717
C4A C5U C24G A45U C66U	≤ 0.5
C5G A36C G52C A57C G63C	≤ 0.5
U7C C11G U32G	≤ 0.5
G17A C24G U28A C30U	≤ 0.5
U3G C34G	≤ 0.5
U2A C11G U35G	≤ 0.5
G17A C33G C49A C62G	≤ 0.5
A15C G63A A70U	≤ 0.5
U3A U7A A15U U26C C29G C31U	≤ 0.5
C5G C22A A37G G50C A70G	≤ 0.5
C11U C31G A36G U54A A57U C62U A69G	≤ 0.5
G18A G68C	0.662
C30U C46A C62U A69G	≤ 0.5
U2C U3A U32A U59C	≤ 0.5
C11G A42U U59A	≤ 0.5
A14G C31U A36C G39C C55U A57U	≤ 0.5
U8A G18C C24A U32C C49U	≤ 0.5
G10A G39A	0.784
U13G G17C U26A	≤ 0.5
A14U U59A G68C	≤ 0.5
G23A U64C A65U	≤ 0.5
U7A G9C G17C G48A A69U	≤ 0.5

Variant	yeast fitness
C46U G51C C62U	≤ 0.5
G17A C34A A40G	≤ 0.5
C24A U54A G58U A69C	≤ 0.5
C4U U32A A40C C62U	≤ 0.5
C29A G41A A43C	0.55
C33A A57G G68C	≤ 0.5
A40C G41C A70G	≤ 0.5
A15C C31G C33G C55U	≤ 0.5
G17C G23C C33G G50A	≤ 0.5
C4G A20G C22G C33U A36C A40U	≤ 0.5
G9C A40C C55G	≤ 0.5
G10A U16G A69U	≤ 0.5
U3A C30G A42G	≤ 0.5
U2A C27U A36C C61A	≤ 0.5
A45C U54A C55A	≤ 0.5
C33U G52C U53G U59G C61A	≤ 0.5
U8C A15U U16A U26A U54C	≤ 0.5
A42U C49G U53A	≤ 0.5
C55A G67A A70G	≤ 0.5
C11A C29A G52C	≤ 0.5
U3C C22G C27A	≤ 0.5
C4A C5G C61U	≤ 0.5
C5U G41A A57G	≤ 0.5
C29G U35A G52A C55G A57U	≤ 0.5

Variant	yeast fitness
U13G A20U G52C C61G	≤ 0.5
C4G C31A C33G G51C G52A C60G	≤ 0.5
C27G C33G G41C C61A	≤ 0.5
G25A C29G C30U C33G G67U	≤ 0.5
G9C G18A G23C G56C	≤ 0.5
U7A C29U A36U G67A	≤ 0.5
C11A U16C G18C	≤ 0.5
A21G C22U A37U A45G C46G C55G	≤ 0.5
A15U A43G U64C	≤ 0.5
G41A G48A G68U A70C	≤ 0.5
C24G A37U U59A	≤ 0.5
G23C C55G C62A	≤ 0.5
U28A U32G C55G A65C	≤ 0.5
G25C C29U G68U A70C	≤ 0.5
G6C A37C G51A U53C C62A	≤ 0.5
U26A C31U A57G	0.742
U2C U19A	0.845
G9A A15U C31G U53A C55U A57C C60G G67C	≤ 0.5
A20G C24G U32C G51A	≤ 0.5
A21U U59A	0.587
C11U A37U U53G	≤ 0.5
C30G A42U C55U	≤ 0.5
G6C U8C A42G C46U C55G	≤ 0.5
U3C A40U A69U	0.755

Variant	yeast fitness
C27A G52C C55A C62G	≤ 0.5
C27G G39C A70C	≤ 0.5
U16C C24U C34G C62U	≤ 0.5
U28G C46A A65C	≤ 0.5
C30A G38C G41A G56C G63A	≤ 0.5
U2C G9U C61G	≤ 0.5
U8A G44A U64C C66A	≤ 0.5
C34U U47G C60U C62G	≤ 0.5
C27A U35A G48A G58C	≤ 0.5
G23C C27G C31A A45U	≤ 0.5
G18A C30U C62A	≤ 0.5
U7A G9C A15G G23A U53A	0.505
G10C G12A C61G C66U	≤ 0.5
A36C A43U G56A	≤ 0.5
G6A A43C U54C A65G	≤ 0.5
C5G U28G G44C G48C	≤ 0.5
C5G G38C U54A	≤ 0.5
G25A G56C	0.711
U28A C31A C34G A36C C55U G63A	≤ 0.5
U19C A20C A45C G48C A69U	≤ 0.5
G18A C24G G38C C66A	≤ 0.5
A37U A45U U47C C62G	≤ 0.5
U32G U35A G39A G44C C62U	≤ 0.5
G10C A14C A21U C31U	0.773

Variant	yeast fitness
A42C G68C A69G	≤ 0.5
G9C A21C C29U C66U	≤ 0.5
U16C A36G A45G U59A	≤ 0.5
U26A G39C G51C	≤ 0.5
C4U G10C A14C C27G G51C	≤ 0.5
C29U	0.989
C24U C34A C55G	≤ 0.5
U2A G12C U32A G44C	≤ 0.5
G6A C11U A43U C62G C66A A69C	≤ 0.5
U3C C46G A69C	0.625
C4G U8G C31A A40C	≤ 0.5
C24U U28C C62G	≤ 0.5
G23C C49A C62A	≤ 0.5
C22G A37G C49A	≤ 0.5
G6C A14C U16C	≤ 0.5
C27G A36G A40G A65G	≤ 0.5
A20G A37C A57U	≤ 0.5
U7C C22G C27U U59A	≤ 0.5
C11G A15G U26A U32A G38A A40U	≤ 0.5
C4A A14U C29U G68A	≤ 0.5
G25C C29U C30U A40C	≤ 0.5
U8C C27U C34G A69C	≤ 0.5
C31U U35C U53A	≤ 0.5
C5G A21C U32A C66A	≤ 0.5

Variant	yeast fitness
C11U U19A C27U U59A A65C G67U	≤ 0.5
G25C C29U A42U C61U	≤ 0.5
C5U A57G G63A	0.63
G25A C46A G52C G68A	≤ 0.5
G10C A14U G38A A43U G56A	≤ 0.5
G10A C30U C34U A42G A57U	≤ 0.5
G12A G38C C49U C62U A69U	0.973
A14U G17C C24A C30G C66U	≤ 0.5
C33U A43U C46G	≤ 0.5
C22U C30A C31U G67U	≤ 0.5
C4A C49U C55A G63A C66U	≤ 0.5
C11A C30A U64A	≤ 0.5
U3C C4A A65C	0.62
U3G C5U U26A G67C	≤ 0.5
A20U C29U C49G	≤ 0.5
C4U G9C A20U	≤ 0.5
C5A G10A A15U G18A U26A A40U C46A C49U	≤ 0.5
U2C A15C C24A G41C	≤ 0.5
C24U C34U G52A G58A	≤ 0.5
G6C U7G G17C G58C G63C	≤ 0.5
C11U U26C U47A G50A	≤ 0.5
U19A G56A	1
U13A G50C A69U	≤ 0.5

— the RNAGym collection of RNA variant scans (doi:10.1126/science.aae0568)
